We go through 1 substance from PMC4792573.

These are yes or no findings as the source states them, for the method shown. Binding seen in cells or lysates may run through a third protein. Some binding calls cover weakened binding; strength is not graded here.

For the test, the target named is NAD(P)H quinone oxidoreductase 1 (human (endogenous in MCF7)) (UniProt P15559). Put plainly: co-IP; total protein of control and Ell3-OE MCF7 cells treated with CDDP for 12 h, immunoprecipitated with anti-NQO1 antibodies (4 μg, 16 h, 4°C, protein G beads), immunoblotted with anti-p53. On the technique in general: A western blot detects proteins with antibodies after separation by electrophoresis.

Regarding “p53 (endogenous in MCF7 cells) (from UniProt P04637 1-393)”, the binding entry is given as “binds”.
